Assay results published in patent US10888864B2, “Electrochemical metabolic activity detecting device” (The Governing Council of the University of Toronto, priority 2014, dated 2021).

Test system: K. pneumoniae
Assay: time required for antibiotics to hinder metabolic activity (resazurin fluorescence)
Assay type: cell-based, Klebsiella pneumoniae
Settings: K. pneumoniae 1×10^5 cfu/μL, antibiotic 100 μg/mL, LB media, 1 mM resazurin, 37° C., FIG. 16
Method: In order to choose a suitable incubation period for the susceptibility test, the time required for the antibiotics to begin inhibiting bacterial metabolic activity was investigated. […] The increase in fluorescence induced by the conversion of resazurin by metabolically active bacteria was recorded.

O=C(O)c1cn(C2CC2)c2cc(N3CCNCC3)c(F)cc2c1=O [ciprofloxacin]
time until fluorescence signal (resazurin conversion) is suppressed: ≤ 30 min
